Test results reported in article PMC8396604.

Sequences of proteins named here, by UniProt entry; tags and fusion partners are left off.
UniProt P80206: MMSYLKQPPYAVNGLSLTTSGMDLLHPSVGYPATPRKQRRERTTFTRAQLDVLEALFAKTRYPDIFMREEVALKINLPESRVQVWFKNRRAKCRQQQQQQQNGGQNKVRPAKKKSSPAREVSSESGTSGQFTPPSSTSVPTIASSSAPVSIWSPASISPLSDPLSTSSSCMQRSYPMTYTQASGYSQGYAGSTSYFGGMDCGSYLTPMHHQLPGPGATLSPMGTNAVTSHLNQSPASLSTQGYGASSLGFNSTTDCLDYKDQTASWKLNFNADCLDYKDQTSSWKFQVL
UniProt Q91VC3: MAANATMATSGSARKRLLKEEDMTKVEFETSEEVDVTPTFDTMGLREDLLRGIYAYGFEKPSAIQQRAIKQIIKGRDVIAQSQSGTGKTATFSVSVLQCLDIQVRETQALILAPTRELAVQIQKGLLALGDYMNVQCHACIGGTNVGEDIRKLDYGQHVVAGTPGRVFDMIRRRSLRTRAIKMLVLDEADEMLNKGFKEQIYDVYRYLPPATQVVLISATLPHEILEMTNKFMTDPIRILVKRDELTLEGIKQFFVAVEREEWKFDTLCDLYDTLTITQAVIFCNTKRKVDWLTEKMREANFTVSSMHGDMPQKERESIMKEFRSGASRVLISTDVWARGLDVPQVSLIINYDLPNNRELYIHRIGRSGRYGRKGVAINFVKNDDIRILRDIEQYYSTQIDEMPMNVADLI
UniProt B2RY56: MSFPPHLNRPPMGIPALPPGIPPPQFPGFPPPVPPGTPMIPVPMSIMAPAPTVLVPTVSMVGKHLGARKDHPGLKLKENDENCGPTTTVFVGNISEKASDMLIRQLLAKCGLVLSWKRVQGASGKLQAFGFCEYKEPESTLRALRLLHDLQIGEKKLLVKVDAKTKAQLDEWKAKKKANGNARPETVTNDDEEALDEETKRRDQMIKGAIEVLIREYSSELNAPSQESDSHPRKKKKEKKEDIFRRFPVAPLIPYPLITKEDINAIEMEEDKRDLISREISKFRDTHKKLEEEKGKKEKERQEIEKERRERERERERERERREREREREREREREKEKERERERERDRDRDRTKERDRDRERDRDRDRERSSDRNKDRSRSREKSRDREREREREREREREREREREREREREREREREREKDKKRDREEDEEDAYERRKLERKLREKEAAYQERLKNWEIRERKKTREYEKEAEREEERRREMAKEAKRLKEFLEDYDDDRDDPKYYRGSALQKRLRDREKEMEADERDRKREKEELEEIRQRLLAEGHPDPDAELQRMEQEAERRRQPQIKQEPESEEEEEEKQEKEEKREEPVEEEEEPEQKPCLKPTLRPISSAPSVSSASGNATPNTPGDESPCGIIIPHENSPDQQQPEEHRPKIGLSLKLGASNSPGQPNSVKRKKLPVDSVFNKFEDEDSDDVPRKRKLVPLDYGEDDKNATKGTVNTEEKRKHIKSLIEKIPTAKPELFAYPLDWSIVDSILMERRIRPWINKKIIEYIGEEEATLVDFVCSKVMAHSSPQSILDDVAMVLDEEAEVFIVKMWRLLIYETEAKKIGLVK
UniProt Q6P4T2: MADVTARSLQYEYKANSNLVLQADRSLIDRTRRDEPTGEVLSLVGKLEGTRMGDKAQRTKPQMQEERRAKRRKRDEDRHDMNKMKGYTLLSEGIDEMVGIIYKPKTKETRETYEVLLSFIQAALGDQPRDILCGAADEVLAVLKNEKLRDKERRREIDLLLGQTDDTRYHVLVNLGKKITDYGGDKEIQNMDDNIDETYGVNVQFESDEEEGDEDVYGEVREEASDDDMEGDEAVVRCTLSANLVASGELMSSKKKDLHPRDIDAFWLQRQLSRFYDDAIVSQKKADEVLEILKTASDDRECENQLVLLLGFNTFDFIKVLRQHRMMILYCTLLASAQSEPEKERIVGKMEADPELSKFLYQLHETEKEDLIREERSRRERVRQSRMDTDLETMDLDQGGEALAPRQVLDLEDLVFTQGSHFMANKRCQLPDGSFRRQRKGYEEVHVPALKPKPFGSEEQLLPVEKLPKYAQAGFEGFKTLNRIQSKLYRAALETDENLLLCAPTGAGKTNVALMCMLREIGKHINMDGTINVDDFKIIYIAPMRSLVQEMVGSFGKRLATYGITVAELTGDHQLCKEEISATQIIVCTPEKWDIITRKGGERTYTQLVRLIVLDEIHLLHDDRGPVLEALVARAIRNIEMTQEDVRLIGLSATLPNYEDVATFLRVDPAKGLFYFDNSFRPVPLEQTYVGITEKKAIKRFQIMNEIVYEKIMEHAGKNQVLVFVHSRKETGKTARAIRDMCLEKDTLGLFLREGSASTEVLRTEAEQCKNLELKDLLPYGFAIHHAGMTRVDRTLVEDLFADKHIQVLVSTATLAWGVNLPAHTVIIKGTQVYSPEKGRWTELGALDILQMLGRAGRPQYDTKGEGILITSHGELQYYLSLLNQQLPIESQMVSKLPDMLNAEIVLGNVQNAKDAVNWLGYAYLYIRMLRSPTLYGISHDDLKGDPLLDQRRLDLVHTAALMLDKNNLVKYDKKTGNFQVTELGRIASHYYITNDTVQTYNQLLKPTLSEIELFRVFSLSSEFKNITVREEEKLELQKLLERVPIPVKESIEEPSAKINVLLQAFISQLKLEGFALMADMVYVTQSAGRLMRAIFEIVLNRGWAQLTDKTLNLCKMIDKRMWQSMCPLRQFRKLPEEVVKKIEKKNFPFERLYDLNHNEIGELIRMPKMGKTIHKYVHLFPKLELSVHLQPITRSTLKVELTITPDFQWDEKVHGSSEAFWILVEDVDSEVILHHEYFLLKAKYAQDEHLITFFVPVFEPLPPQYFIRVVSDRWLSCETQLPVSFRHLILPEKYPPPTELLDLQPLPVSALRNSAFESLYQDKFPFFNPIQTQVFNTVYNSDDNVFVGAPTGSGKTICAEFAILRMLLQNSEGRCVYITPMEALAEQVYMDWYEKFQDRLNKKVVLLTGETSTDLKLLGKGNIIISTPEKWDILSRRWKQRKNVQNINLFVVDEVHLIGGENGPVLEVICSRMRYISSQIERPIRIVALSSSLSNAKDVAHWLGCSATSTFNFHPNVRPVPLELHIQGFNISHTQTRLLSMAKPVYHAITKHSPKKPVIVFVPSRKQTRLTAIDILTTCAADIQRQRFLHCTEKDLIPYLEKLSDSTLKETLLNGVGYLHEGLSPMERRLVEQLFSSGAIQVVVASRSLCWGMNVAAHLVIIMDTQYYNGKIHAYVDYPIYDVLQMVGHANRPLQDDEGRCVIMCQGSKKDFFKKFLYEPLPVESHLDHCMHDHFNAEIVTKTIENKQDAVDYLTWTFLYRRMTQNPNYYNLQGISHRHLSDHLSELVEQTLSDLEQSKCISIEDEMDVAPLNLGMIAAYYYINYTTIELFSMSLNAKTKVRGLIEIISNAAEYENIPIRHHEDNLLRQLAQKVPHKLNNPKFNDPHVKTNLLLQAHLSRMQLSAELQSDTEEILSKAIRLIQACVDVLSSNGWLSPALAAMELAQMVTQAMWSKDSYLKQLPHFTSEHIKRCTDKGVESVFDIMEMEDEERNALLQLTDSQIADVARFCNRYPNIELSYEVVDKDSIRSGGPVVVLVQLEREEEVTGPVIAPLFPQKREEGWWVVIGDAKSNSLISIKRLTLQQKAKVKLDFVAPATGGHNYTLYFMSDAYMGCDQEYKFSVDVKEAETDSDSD
UniProt Q9Z1T6: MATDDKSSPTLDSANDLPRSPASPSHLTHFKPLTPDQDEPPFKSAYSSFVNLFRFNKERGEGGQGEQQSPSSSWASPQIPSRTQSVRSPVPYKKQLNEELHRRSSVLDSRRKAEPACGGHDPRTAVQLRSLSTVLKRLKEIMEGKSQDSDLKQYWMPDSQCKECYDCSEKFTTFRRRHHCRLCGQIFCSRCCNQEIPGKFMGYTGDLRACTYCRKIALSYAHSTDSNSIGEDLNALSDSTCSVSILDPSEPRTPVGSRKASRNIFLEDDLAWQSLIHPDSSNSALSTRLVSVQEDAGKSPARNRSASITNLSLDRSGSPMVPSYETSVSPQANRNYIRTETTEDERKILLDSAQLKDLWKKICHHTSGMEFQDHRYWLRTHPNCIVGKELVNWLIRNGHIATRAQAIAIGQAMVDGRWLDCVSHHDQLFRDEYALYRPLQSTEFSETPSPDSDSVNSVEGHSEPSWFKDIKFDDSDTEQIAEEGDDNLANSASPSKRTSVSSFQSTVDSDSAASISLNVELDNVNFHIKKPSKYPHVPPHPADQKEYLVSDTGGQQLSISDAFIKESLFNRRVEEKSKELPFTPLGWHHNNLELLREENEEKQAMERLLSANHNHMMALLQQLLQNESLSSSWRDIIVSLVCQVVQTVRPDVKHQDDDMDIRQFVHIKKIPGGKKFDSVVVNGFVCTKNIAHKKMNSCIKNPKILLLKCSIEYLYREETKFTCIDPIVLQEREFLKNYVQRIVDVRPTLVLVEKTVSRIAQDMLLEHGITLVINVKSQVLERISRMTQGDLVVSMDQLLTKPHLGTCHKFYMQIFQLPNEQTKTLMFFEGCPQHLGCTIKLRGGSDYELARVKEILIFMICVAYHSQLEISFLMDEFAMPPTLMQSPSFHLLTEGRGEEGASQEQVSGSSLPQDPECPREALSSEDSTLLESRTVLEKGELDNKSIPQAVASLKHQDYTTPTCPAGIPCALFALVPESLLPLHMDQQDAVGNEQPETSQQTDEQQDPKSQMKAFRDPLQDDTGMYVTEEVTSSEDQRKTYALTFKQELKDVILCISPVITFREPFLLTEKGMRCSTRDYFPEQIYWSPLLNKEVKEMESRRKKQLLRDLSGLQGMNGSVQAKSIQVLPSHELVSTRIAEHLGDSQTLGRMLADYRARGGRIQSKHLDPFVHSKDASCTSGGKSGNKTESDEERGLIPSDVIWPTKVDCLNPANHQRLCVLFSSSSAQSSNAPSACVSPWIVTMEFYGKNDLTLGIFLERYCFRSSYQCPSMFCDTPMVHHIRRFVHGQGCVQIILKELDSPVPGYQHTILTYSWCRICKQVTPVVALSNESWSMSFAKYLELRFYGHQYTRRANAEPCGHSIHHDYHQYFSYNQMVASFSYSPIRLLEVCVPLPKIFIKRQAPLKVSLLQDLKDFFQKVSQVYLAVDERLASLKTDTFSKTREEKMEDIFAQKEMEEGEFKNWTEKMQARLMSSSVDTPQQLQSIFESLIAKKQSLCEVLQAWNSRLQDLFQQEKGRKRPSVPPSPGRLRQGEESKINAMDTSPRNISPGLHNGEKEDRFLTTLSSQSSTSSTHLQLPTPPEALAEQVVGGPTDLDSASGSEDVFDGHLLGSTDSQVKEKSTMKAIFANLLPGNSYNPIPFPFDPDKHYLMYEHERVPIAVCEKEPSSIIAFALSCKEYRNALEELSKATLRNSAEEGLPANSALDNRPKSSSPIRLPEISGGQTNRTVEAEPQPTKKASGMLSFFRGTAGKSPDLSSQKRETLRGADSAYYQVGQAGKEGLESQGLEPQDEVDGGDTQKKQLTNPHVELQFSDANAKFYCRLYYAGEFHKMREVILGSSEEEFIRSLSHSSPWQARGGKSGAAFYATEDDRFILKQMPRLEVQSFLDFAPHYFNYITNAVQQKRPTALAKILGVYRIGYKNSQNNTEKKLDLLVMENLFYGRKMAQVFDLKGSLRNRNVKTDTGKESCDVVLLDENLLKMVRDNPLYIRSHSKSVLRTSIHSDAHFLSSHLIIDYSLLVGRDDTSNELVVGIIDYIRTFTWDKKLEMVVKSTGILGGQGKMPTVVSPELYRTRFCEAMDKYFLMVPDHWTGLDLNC
UniProt Q9Z0V1: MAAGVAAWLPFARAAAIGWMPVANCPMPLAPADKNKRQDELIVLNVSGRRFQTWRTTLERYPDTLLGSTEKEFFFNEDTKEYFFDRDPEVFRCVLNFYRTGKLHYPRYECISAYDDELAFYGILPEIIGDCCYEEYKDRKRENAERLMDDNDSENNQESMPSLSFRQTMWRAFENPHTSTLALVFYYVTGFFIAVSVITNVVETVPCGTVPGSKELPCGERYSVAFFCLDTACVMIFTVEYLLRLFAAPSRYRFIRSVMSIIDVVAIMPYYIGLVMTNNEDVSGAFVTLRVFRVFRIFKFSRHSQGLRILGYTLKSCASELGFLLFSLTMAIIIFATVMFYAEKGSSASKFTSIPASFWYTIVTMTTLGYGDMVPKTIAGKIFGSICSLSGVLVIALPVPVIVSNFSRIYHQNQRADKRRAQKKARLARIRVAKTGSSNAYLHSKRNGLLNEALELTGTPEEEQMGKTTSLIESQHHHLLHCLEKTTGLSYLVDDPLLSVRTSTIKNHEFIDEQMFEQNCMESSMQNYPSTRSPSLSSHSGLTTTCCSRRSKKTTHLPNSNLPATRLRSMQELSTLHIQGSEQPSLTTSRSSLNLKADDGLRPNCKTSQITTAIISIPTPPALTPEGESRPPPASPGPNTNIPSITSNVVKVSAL

B1: ACIN1 (protein, UniProt Q9JIX8 1-1338)
chain: MWGRKRPNSSGETRGILSGNRGVDYGSGRGQSGPFEGRWRKLPKMPEAVGTDPSTSRKMAELEEVTLDGKPLQALRVTDLKAALEQRGLAKSGQKSALVKRLKGALMLENLQKHSTPHAAFQPNSQIGEEMSQNSFIKQYLEKQQELLRQRLEREAREAAELEEASAESEDEMTHPEGVASLLPPDFQSSLNRPELELSTHSPRKSSSFSEEKGESDDEKPRKGERRSSRVRQAKSKLPEYSQTAEEEEDQETPSRNLRVRADRNLKIEEEEEEEEEEEDDDDEEEEEVDEAQKSREAEAPTLKQFEDEEGEERTRAKPEKVVDEKPLNIRSQEKGELEKGGRVTRSQEEARRSHLARQQQEKETQIVSLPQEENEVKSSQSLEEKSQSPSPPPLPEDLEKAPVVLQPEQIVSEEETPPPLLTKEASSPPTHIQLQEEMEPVEGPAPPVLIQLSPPNTDAGAREPLASPHPAQLLRSLSPLSGTTDTKAESPAGRVSDESVLPLAQKSSLPECSTQKGVESEREKSAPLPLTVEEFAPAKGITEEPMKKQSLEQKEGRRASHALFPEHSGKQSADSSSSRSSSPSSSSSPSRSPSPDSVASRPQSSPGSKQRDGAQARVHANPHERPKMGSRSTSESRSRSRSRSRSASSSSRKSLSPGVSRDSNTSYTETKDPSCGQEAAAPSGPQLQVLEPKEKAPTFSASVRGRHLSHPEPEQQHVIQRLQPEQGSPKKCEAEEAEPPAATQPQTSETQISHLLESERTHHTVEEKEEVTMDTSENRPENEVPEPPLPVADQVSNDERPEGGAEEEEKKESSMPKSFKRKISVVSATKGVQAGNSDTEGGQPGRKRRWGASTAATQKKPSISITTESLKSLIPDIKPLAGQEAVVDLHADDSRISEDETERNGDDGTHDKGLKICRTVTQVVPAEGQENGQREEEEEKEPEAELPAPPQVSVEVALPPPVEHEVKKVTLGDTLTRRSISQQKSGVSITIDDPVRTAQVPSPPRGKISNIVHISNLVRPFTLGQLKELLGRTGTLVEEAFWIDKIKSHCFVTYSTVEEAVATRTALHGVKWPQSNPKFLCADYAEQDELDYHRGLLVDRPSETKAEEQGAPRPLHPPPPPPVQPPPHPRAEQREQERAVREQWAEREREMERRERTRSEREWDRDKVREGPRSRSRSRDRRRKERAKSKEKKSEKKEKAQEEPPAKLLDDLFRKTKAAPCIYWLPLTESQIVQKEAEQAERAKEREKRRKEREEEEQKEREKEAERERNRQLEREKRREHSRERERDRERERDRGDRERERERDRDRGRERDRRDTKRHSRSRSRSTPVRDRGGRR
B2: DDX46 (protein, UniProt Q569Z5 1-1032)
chain: MGRESRHYRKRSASRGRSGSRSRSRSPSDKRSKRGDDRRSRSRDRDRRRERSRSRDKRRSRSRDRKRLRRSRSRERDRSRERRRSRSRDRRRSRSRSRGRRSRSSSPGSKTKKTENRSRSKEKAEGGDSSKEKKKDKDDKEDEKEKDAGNFDQNKLEEEMRKRKERVEKWREEQRKKAMENIGELKKEIEEMKQGKKWSLEDDDDDEDDPAEAEKEGTEMEDEELDPLDAYMEEVKEEVKKFNMRSVKGGAGNEKKSGPTVTKVVTVVTTKKAVVDADKKKGELMENDQDAMEYSSEEEEVDLQTALTGYQTKQRKLLEPVDHGKIEYEPFRKNFYVEVPELAKMSQEEVNVFRLEMEGITVKGKGCPKPIKSWVQCGISMKILNSLKKHGYEKPTPIQTQAIPAIMSGRDLIGIAKTGSGKTIAFLLPMFRHIMDQRSLEEGEGPIAVIMTPTRELALQITKECKKFSKTLGLRVVCVYGGTGISEQIAELKRGAEIIVCTPGRMIDMLAANSGRVTNLRRVTYVVLDEADRMFDMGFEPQVMRIVDNVRPDRQTVMFSATFPRAMEALARRILSKPIEVQVGGRSVVCSDVEQQVIVIEEEKKFLKLLELLGHYQESGSVIIFVDKQEHADGLLKDLMRASYPCMSLHGGIDQYDRDSIINDFKNGTCKLLVATSVAARGLDVKHLILVVNYSCPNHYEDYVHRAGRTGRAGNKGYAYTFITEDQARYAGDIIKALELSGTAVPPDLEKLWSDFKDQQKAEGKIIKKSSGFSGKGFKFDETEQALANERKKLQKAALGLQDSDDEDAAVDIDEQIESMFNSKKRVKDMAAPGTSSVPAPTAGNAEKLEIAKRLALRINAQKNLGIESQVDVMQQATNAILRGGTILAPTVSAKTIAEQLAEKINAKLNYVPLEKQEEERQEGGQSESFKRYEEELEINDFPQTARWKVTSKEALQRISEYSEAAITIRGTYFPPGKEPKEGERKIYLAIESANELAVQKAKAEITRLIKEELIRLQNSYQPTNKGRYKVL
B3: ARVCF (protein, UniProt P98203 1-962)
chain: MEDCNVHSAASILASVKEQEARFERLTRALEQERRHVALQLERAQQPGMSSGGMVGSGQPLPMAWQQLVLQEQSPGSQASLATMPEAPEVLEETVTVEEDPGTPTSHVSIVTSEDGTTRRTETKVTKTVKTVTTRTVRQVPLGPDGLPLLDGGPPLGSFADGPLDRHYLLRGGGGPAATLSRTYHSSGGGFPDGPESRDIPSYGSLSRGLGVRPPRTGLLGPGPGDGCFTLPGRREAFPMGSESGPPSGRSLPEHFQAEPYGLEDDTRSLAADDEGGPDLEPDYSTATRRRPEYGRGLRARAFEDTADDAGELIEERPPFPAATAPLAQPERGSLGSLDRVVRRSPSVDSTRKEPRWRDPELPEVLAMLRHPVDPVKANAAAYLQHLCFENEGIKRRVRQLRGLPLLVALLDHPRAEVRRRACGALRNLSYGRDTDNKAAIRDCGGVPALVRLLRAARDNEVRELVTGTLWNLSSYEPLKMVIIDHGLQTLTHEVIVPHSGWEREPNEDSKPRDAEWTTVFKNTSGCLRNVSSDGAEARRRLRECEGLVDALLHALQSAVGRKDTDNKSVENCVCIMRNLSYHVHKEVPGADRYQEAEPGIPGSTTSQRRRKDDASCFGGKKAKEEWFHQGKKDAEMDRNFDTLDLPKRTEAAKGFELLYQPEVVRLYLSLLTESRNFNTLEAAAGALQNLSAGNWTWATYIRATVRKERGLPVLVELLQSETDKVVRAVAIALRNLSLDQRNKDLIGSYAMTELVRNVRNAQAPAHPSAHLEEDTVVAVLNTIHEIVSDSLDNARSLLQARGVPALVALVASSQSVREAKAASHVLQTVWSYKELRGALQRDGWTKSRFQSASTAKGPKGTPSSGGFDDSTLPLVDKSLDGEKSNTRDVIPMDTLGPDGYATVDRRERRTLGSDSTGDTSEKELLRPDPGRKAPPPGPSRPSVRLVDAVGDTKPQPVDSWV
B4: SF3A1 (protein, UniProt Q8K4Z5 1-791)
chain: MQAGPVQAVPPPPPVATESKQPIEEEASSKEDPTPSKPVVGIIYPPPEVRNIVDKTASFVARNGPEFEARIRQNEINNPKFNFLNPNDPYHAYYRHKVSEFKEGKAQEPSAAIPKVMQQQQQATQQQLPQKVQAQVIQETIVPKEPPPEFEFIADPPSISAFDLDVVKLTAQFVARNGRQFLTQLMQKEQRNYQFDFLRPQHSLFNYFTKLVEQYTKILIPPKGLFSKLKKEAENPREVLDQVCYRVEWAKFQERERKKEEEEKEKERVAYAQIDWHDFVVVETVDFQPNEQGNFPPPTTPEELGARILIQERYEKFGESEEVEMEVESDEEDQEKAEETPSQLDQDTQVQDMDEGSDDEEEGQKVPPPPETPMPPPLPPTPDQVIVRKDYDPKASKPLPPAPAPDEYLVSPITGEKIPASKMQEHMRIGLLDPRWLEQRDRSIREKQSDDEVYAPGLDIESSLKQLAERRTDIFGVEETAIGKKIGEEEIQKPEEKVTWDGHSGSMARTQQAAQANITLQEQIEAIHKAKGLVPEDDTKEKIGPSKPNEIPQQPPPPSSATNIPSSAPPITSVPRPPAMPPPVRTTVVSAVPVMPRPPMASVVRLPPGSVIAPMPPIIHAPRINVVPMPPAAPPIMAPRPPPMIVPTAFVPAPPVAPVPAPAPMPPVHPPPPMEDEPPSKKLKTEDSLMPEEEFLRRNKGPVSIKVQVPNMQDKTEWKLNGQGLVFTLPLTDQVSVIKVKIHEATGMPAGKQKLQYEGIFIKDSNSLAYYNMASGAVIHLALKERGGRKK
B5: SF3B1 (protein, UniProt Q99NB9 1-1304)
chain: MAKIAKTHEDIEAQIREIQGKKAALDEAQGVGLDSTGYYDQEIYGGSDSRFAGYVTSIAATELEDDDDDYSSSTSLLGQKKPGYHAPVALLNDIPQSTEQYDPFAEHRPPKIADREDEYKKHRRTMIISPERLDPFADGGKTPDPKMNARTYMDVMREQHLTKEEREIRQQLAEKAKAGELKVVNGAAASQPPSKRKRRWDQTADQTPGATPKKLSSWDQAETPGHTPSLRWDETPGRAKGSETPGATPGSKIWDPTPSHTPAGAATPGRGDTPGHATPGHGGATSSARKNRWDETPKTERDTPGHGSGWAETPRTDRGGDSIGETPTPGASKRKSRWDETPASQMGGSTPVLTPGKTPIGTPAMNMATPTPGHIMSMTPEQLQAWRWEREIDERNRPLSDEELDAMFPEGYKVLPPPAGYVPIRTPARKLTATPTPLGGMTGFHMQTEDRTMKSVNDQPSGNLPFLKPDDIQYFDKLLVDVDESTLSPEEQKERKIMKLLLKIKNGTPPMRKAALRQITDKAREFGAGPLFNQILPLLMSPTLEDQERHLLVKVIDRILYKLDDLVRPYVHKILVVIEPLLIDEDYYARVEGREIISNLAKAAGLATMISTMRPDIDNMDEYVRNTTARAFAVVASALGIPSLLPFLKAVCKSKKSWQARHTGIKIVQQIAILMGCAILPHLRSLVEIIEHGLVDEQQKVRTISALAIAALAEAATPYGIESFDSVLKPLWKGIRQHRGKGLAAFLKAIGYLIPLMDAEYANYYTREVMLILIREFQSPDEEMKKIVLKVVKQCCGTDGVEANYIKTEILPPFFKHFWQHRMALDRRNYRQLVDTTVELANKVGAAEIISRIVDDLKDEAEQYRKMVMETIEKIMGNLGAADIDHKLEEQLIDGILYAFQEQTTEDSVMLNGFGTVVNALGKRVKPYLPQICGTVLWRLNNKSAKVRQQAADLISRTAVVMKTCQEEKLMGHLGVVLYEYLGEEYPEVLGSILGALKAIVNVIGMHKMTPPIKDLLPRLTPILKNRHEKVQENCIDLVGRIADRGAEYVSAREWMRICFELLELLKAHKKAIRRATVNTFGYIAKAIGPHDVLATLLNNLKVQERQNRVCTTVAIAIVAETCSPFTVLPALMNEYRVPELNVQNGVLKSLSFLFEYIGEMGKDYIYAVTPLLEDALMDRDLVHRQTASAVVQHMSLGVYGFGCEDSLNHLLNYVWPNVFETSPHVIQAVMGALEGLRVAIGPCRMLQYCLQGLFHPARKVRDVYWKIYNSIYIGSQDALIAHYPRIYNDDKNTYIRYDLDYIL

Assays:
[1] = biological target: OTX2 homeoprotein (mouse (endogenous in adult mouse brain tissue)) (UniProt P80206); test: affinity purification with mass spectrometry; anti-OTX2 (ab21990) coupled to magnetic beads, lysates of SVZ, RMS and visual cortex pooled from ten 3-month-old wildtype mice; 20 mM Tris pH 8, 120 mM NaCl, 1% NP40, 1 mM MgCl2, 5% glycerol, benzonase; IgG co-IP as control; nano-LC-MS/MS; N = 1; hits common to the three structures
[2] = biological target: OTX2 homeoprotein (mouse (endogenous in adult mouse brain tissue)) (UniProt P80206); test: affinity purification with mass spectrometry; anti-OTX2 (ab21990) coupled to magnetic beads, lysate of pooled LV and 4V choroid plexus from four 3-month-old mice; 100 mM Tris pH 7.5, 1 mM EDTA, 100 mM NaCl, 1% NP40, 1 mM MgCl2, benzonase; 4 °C overnight; IgG co-IP as control; nano-LC-MS/MS; N = 3

| Molecule | binding [1] | binding [2] |
| --- | --- | --- |
| THOC2 (from UniProt B1AZI6 1-1594) | binds | – |
| EIF4A3 (from UniProt Q91VC3 1-411) | binds | – |
| RBM25 (from UniProt B2RY56 1-838) | binds | – |
| SNRNP200 (from UniProt Q6P4T2 1-2136) | binds | – |
| PIKFYVE (from UniProt Q9Z1T6 1-2097) | binds | binds |
| KCND3 (from UniProt Q9Z0V1 1-655) | binds | binds |
| B1 | binds | – |
| B2 | binds | – |
| B3 | – | binds |
| B4 | binds | – |
| B5 | binds | – |

No constants are given. Whether binding was seen depends on the method and setting. In cells and extracts the contact can be indirect. These calls come from enrichment with a bait or labelling near it, and not all partners need be listed.
